Library screening results

Data taken from ChEMBL document CHEMBL3988442, “University of Dundee, Small-Polar-MMV Screening Library” (2021).

A: 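Whole-cell assay for inhibitors of Mycobacterium tuberculosis growth, labelled Cornell in the record; the read-out is not stated. The concentration is filed as 10 mM, unlikely as a test dose, so the dose is not known. Higher means stronger inhibition (inferred from two other growth screens of the library). About 53,000 compounds were tested under these conditions; 1.7% (about 900) showed 50% or more at least once.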
B: 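Assay on Mycobacterium tuberculosis, filed only as a heat shock assay from Cornell; the read-out is not stated. The concentration is filed as 10 mM, unlikely as a test dose, so the dose is not known. The record gives no direction; compounds that gave an IC50 in retests scored well above the rest, so higher reads as stronger inhibition. Of about 69,000 compounds tested this way, about 930 (1.4%) reached 50% or more in at least one test.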

Values are the deposited “Percent Effect”, in %. The controls that fix the scale are not given in the record; negative values are as filed. This is an unselected part of the compounds tested.

* Cl.O=C(C1CCCCC1)N1CCC2(CC1)CNCc1ccccc12 | A: 25.77%; B: -37.22%
* Cc1cc(C)n(-c2cncc(N3CCN(C(=O)C(C)C)CC3)n2)n1 | A: 14.64%; B: -20.6%
* CN(C)C(=O)Cn1cc(C#N)c(=O)c2cc(Br)ccc21 | A: -12.05%; B: 3.858%
* COc1cc(C)c(CNC(C)c2nc(C)cs2)cc1OC (centres undefined) | A: -21.66%; B: -16.03%
* Cc1nccn1CCC1CCCCN1Cc1cnc(N(C)C)nc1 (centres undefined) | A: 17.57%; B: -27.71%
* Cc1nccc(N[C@H]2CN(C(=O)CN3CCOCC3)C[C@@H]2C(C)C)n1 | A: -9.028%; B: -18.05%
* CCOc1ccc(C#N)cc1NCC(=O)NC(=O)Nc1ccccc1 | A: -8.579%; B: 3.97%
* Cn1ccnc1CN1CCC2(COCCN(S(=O)(=O)C3CC3)C2)C1 (centres undefined) | A: -14.33%; B: 21.91%
* OC(COCc1ccccc1)CN1CC(n2cccn2)C1 (centres undefined) | B: 22.25%
* CCC(=O)N1CCN(C(=O)CCn2cccn2)CC1 | A: -4.4%; B: 10.75%
* Cc1ccc(S(=O)(=O)N2CCOCC2C(N)=O)c(F)c1 (centres undefined) | B: 7.567%
* OC(CN1CCC(c2ccn[nH]2)CC1)c1cccc(F)c1 (centres undefined) | A: -20.56%; B: 5.595%
* Cc1cnn(CC2CCN(CC(O)c3ccccc3)CC2)c1 (centres undefined) | A: -60.15%; B: -13.46%
* O=S(=O)(Cc1ccc(F)c(Cl)c1)NC(CO)c1ccco1 (centres undefined) | A: -40.29%; B: -2.962%
* Cc1ccc(CC(=O)N2CCCC2Cn2nc(C)cc2C)cn1 (centres undefined) | B: -1.33%
* COc1ccc(CN2CCC3(CC2)NC(=O)CC3c2ccncc2)cc1.O=C(O)C(F)(F)F.O=C(O)C(F)(F)F (centres undefined) | A: -3.129%; B: -6.351%
* COCCNC(=O)c1cc2c(s1)CCN2C(=O)c1ccccc1 | A: -15.76%; B: -10.19%
* O=C(CC1NC(N2CCc3ccccc3C2)=NC1=O)Nc1ccccc1 (centres undefined) | A: -9.759%; B: 19.61%
* Cn1cccc1CN(C(=O)CC(CC(=O)O)c1cccs1)C1CC1 (centres undefined) | A: 104.7%; B: -19.42%
* Cc1ccc(C)c(S(=O)(=O)NC(=O)COc2cccc(C#N)c2)c1 | A: -0.9759%; B: -7.445%
* Cc1cc(C2CCC2)nc(N(C)Cc2ncccc2C)n1 | A: -23.1%; B: -15.11%
* CC(C)(O)CN1CCN(C(=O)c2cccn2Cc2cccnc2)CC1 | B: -2.081%
* Cc1nn(C)c(C)c1C1CCCN1Cc1nc(N)c2ccccc2n1 (centres undefined) | B: -13.27%
* Cn1nc(Cn2cccc2)c2c1CN(Cc1ccoc1)C2.O=C(O)C(F)(F)F | A: -16.95%; B: -3.106%
* c1ccc(CN2CCC(CNc3ncnc4c3CCNCC4)CC2)cc1 | A: -7.425%; B: 0.5124%
* COCCN(Cc1cccc(O)c1)CC1CC1 | A: -15.82%; B: 4.411%
* O=C(O)C(F)(F)F.[H][C@@]12C[C@H](C(=O)Nc3ccccc3)[C@@]([H])(CN(CC)C1)O2 | A: -21.47%; B: 8.883%
* CCC1c2ccc(C)n2CCN1C(=O)Cn1cnc2sc(C)cc2c1=O (centres undefined) | A: 27.93%; B: 26.13%
* CC(=O)NCCNC(=O)CNC1CCCN(c2ccc(C)nn2)C1 (centres undefined) | A: -33.48%; B: -16.19%
* Cc1nn(C)c(Cl)c1C1CCCN1C(=O)c1ccc(N(C)C)nn1 (centres undefined) | A: 11.48%; B: -12.74%
* O=C(c1cc(-c2ccccc2)nc2onc(C3CC3)c12)N1CC[C@H](O)C1 | B: -8.913%
* O=C(O)C(F)(F)F.O=C(c1ccccc1)N1CCC2(CCCN2c2ncccn2)CC1 | A: 24.87%; B: -18.03%
* CCOc1ccc(CNC(C)c2c(C)nn(C)c2C)cc1 (centres undefined) | A: -59.81%; B: -17.8%
* O=C(O)C(F)(F)F.O=C(O)C(F)(F)F.[H][C@@]12CN(Cc3nccs3)C[C@@H](C(=O)NC3CCCC3)[C@]1([H])CCO2 | B: -17.32%
* Cc1nc(C)c(C(=O)N2CCC(Nc3cccnc3)CC2)s1 | A: 14.92%; B: 1.051%
* O=C(C(CNCc1cccc(O)c1)c1ccccc1)N1CCOCC1 (centres undefined) | A: 4.218%; B: -10.21%
* O=C(c1cc[nH]n1)N(Cc1cccc(O)c1)CC1CC1 | A: 1.137%; B: 5.807%
* CCCn1c(C)c(CC(=O)N[C@H](C)C(=O)OC)c2c1CC(C)(C)CC2=O | A: 46.36%; B: -10.21%
* CCN(CC)C(=O)Cn1c(C)cc2nc(SC)n(CC(C)C)c(=O)c21 | A: 5.635%; B: 3.765%
* CS(=O)(=O)NCC1OCCc2cn(CC3CC3)nc21 (centres undefined) | A: -11.92%; B: -14.72%
* O=C(Nc1cc(-c2ccccc2)on1)N1CCN(CCO)CC1 | A: 13.47%; B: -9.361%
* Cl.NCc1ccc(Oc2ccc(F)c(F)c2)cc1C(F)(F)F | A: 2.514%; B: 1.199%
* Cc1cc(=O)n2ncnc2n1CC(O)c1ccccc1F (centres undefined) | A: -20.82%; B: 3.286%
* O=C(O)C(F)(F)F.O=C1N(Cc2cccc(F)c2)CCC12CCN(c1ccccn1)CC2 | A: 5.268%; B: -4.777%
* Cc1cccc(C(C(=O)NCCCc2nnc3ccccn23)N(C)C)c1 (centres undefined) | A: -29.52%; B: -22.68%
* OC1CCN(Cc2ccc(CNc3ncc(Cl)cc3F)cc2)CC1 | A: -3.215%; B: 1.058%
* O=C(O)C(F)(F)F.[H][C@@]12CN(Cc3ccoc3)CCO[C@]1([H])CN(C(=O)Cc1ccsc1)C2 | A: 20.96%; B: -1.836%
* O=c1[nH]c2nc(NC3CC3)ncc2c(=O)n1-c1ccc(F)cc1 | A: -7.494%; B: -2%

Once more, the final 6:

For Cc1cc(=O)n2ncnc2n1CC(O)c1ccccc1F (centres undefined) the result was A: -20.82%; B: 3.286%.
For O=C(O)C(F)(F)F.O=C1N(Cc2cccc(F)c2)CCC12CCN(c1ccccn1)CC2 the result was A: 5.268%; B: -4.777%.
For Cc1cccc(C(C(=O)NCCCc2nnc3ccccn23)N(C)C)c1 (centres undefined) the result was A: -29.52%; B: -22.68%.
For OC1CCN(Cc2ccc(CNc3ncc(Cl)cc3F)cc2)CC1 the result was A: -3.215%; B: 1.058%.
For O=C(O)C(F)(F)F.[H][C@@]12CN(Cc3ccoc3)CCO[C@]1([H])CN(C(=O)Cc1ccsc1)C2 the result was A: 20.96%; B: -1.836%.
For O=c1[nH]c2nc(NC3CC3)ncc2c(=O)n1-c1ccc(F)cc1 the result was A: -7.494%; B: -2%.